Patent publication US20110020218A1
These are yes or no findings as the source states them, for the method shown. Some binding calls cover weakened binding; strength is not graded here.

Amino acid sequences for entries named in this document (tags omitted).
UniProt P61073: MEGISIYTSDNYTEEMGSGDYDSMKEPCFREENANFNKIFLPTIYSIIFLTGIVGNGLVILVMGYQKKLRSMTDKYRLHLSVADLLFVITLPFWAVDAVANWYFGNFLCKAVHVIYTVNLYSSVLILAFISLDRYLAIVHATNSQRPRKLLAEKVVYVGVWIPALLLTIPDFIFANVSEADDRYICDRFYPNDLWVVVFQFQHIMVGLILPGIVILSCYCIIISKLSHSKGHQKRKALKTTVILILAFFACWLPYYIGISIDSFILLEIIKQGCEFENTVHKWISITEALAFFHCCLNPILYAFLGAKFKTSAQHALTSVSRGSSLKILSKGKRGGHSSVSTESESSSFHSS

Experiments:
[1] = molecular target: human CXCR4 receptor (wild type) (human) (UniProt P61073); test: FACS on NIH3T3-hCXCR4 transfected cells
[2] = molecular target: human CXCR4 receptor (wild type) (human) (UniProt P61073); test: immunohistochemistry, 50 µg/ml, RAMOS and KARPAS299 xenograft tumor sections (formalin or Glyo-fixx fixed)
[3] = molecular target: human CXCR4 receptor (wild type) (human) (UniProt P61073); test: flow cytometry competition with biotinylated murine 515H7 on CXCR4 transfected NIH3T3 cells

binding [1] | binding [2] | binding [3] | Binder
binds | binds |  | anti-CXCR4 Mab 515H7 (antibody, V domains shown) VH: EVNLVESGGGLVQPGGSLRLSCATSGFTFTDNYMSWVRQPPGKALEWLGFIRNKANGYTTDYSASVRGRFTISRDNSQSILYLQMNALRAEDSATYYCARDVGSNYFDYWGQGTTLTVSS VL: DIVMSQSPSSLAVSAGEKVTMSCKSSQSLFNSRTRKNYLAWYQQKPGQSPKLLIYWASARDSGVPARFTGSGSETYFTLTISRVQAEDLAVYYCMQSFNLRTFGGGTKLEIK
 |  | binds | hz515H7 VH2 combined with the chimeric VL (cVL) (antibody, human IgG1, kappa, V domains shown) VH: EVNLVESGGGLVQPGRSLRLSCTASGFTFTDNYMSWVRQAPGKGLEWLGFIRNKANGYTTDYAASVRGRFTISRDNSKSILYLQMNALRTEDTAVYYCARDVGSNYFDYWGQGTLVTVSS VL: DIVMSQSPSSLAVSAGEKVTMSCKSSQSLFNSRTRKNYLAWYQQKPGQSPKLLIYWASARDSGVPARFTGSGSETYFTLTISRVQAEDLAVYYCMQSFNLRTFGGGTKLEIKR
